Tested on: DA release in striatum
Assay: [11C]-raclopride PET binding potential
Format: in vivo, humans
Experimental: The Positron Emission Tomography (PET) scans were performed at the PET Center of Johns Hopkins University at Johns Hopkins Hospital, Baltimore, Md. During the PET scans three plasma samples of RPR 102681 were obtained from each subject under different dosing to measure RPR 102681 plasma concentration.
Each subject was also studied using Magnetic Resonance Imaging (MRI). Each subject received an individual thermoplastic mask molded to their face to allow for repositioning and stabilizing of the head during the MRI procedure and PET scan later. Marks, which localized the anatomical structures of interest, were placed on the mask following the MRI scan. […]
[^11C]-raclopride PET scans were preformed on days 6, 13, 20 and 27. […] To measure the specific binding of tracer, binding potential (BP) images were generated by a simplified reference model with a linear regression algorithm (Using a reference tissue model with spatial constraint to quantify [^11C] Pittsburgh compound B PET for early diagnosis of Alzheimer's disease, Yun Zhou, Susan M. Resnick, Weiguo Ye, Hong Fan, Daniel P. Holt, William E. Klunk, Chester A. Mathis, Robert Dannals, and Dean F. Wonga, NeuroImage 36 (2007) 298-312). […]

In the case of `CC(C(=O)O)c1cccc(NC(=O)NCC(=O)N2C(C(=O)OC(C)(C)C)CSC2c2ccccc2F)c1` [RPR 102681, (2S)-2-{3-[3-({[(2R,4R)-4-tert-Butoxycarbonyl-2-(2-fluorophenyl)]-3-thiazolidinyl}carbonylmethyl)ureido]phenyl}propionic acid], the “% BP change vs RPR 102681 plasma concentration” value (Dosing Schedule A) is reported as “no significant relationship” and the “% BP change vs RPR 102681 plasma concentration” value (Dosing Schedule B) is reported as “no significant correlation”.

Source: US8592466B2, “Methods for treating conditions caused by higher-than-normal dopaminergic activity in basal ganglia” (Neuropill, Inc., priority 2008, dated 2013)
